Data source: PubChem BioAssay AID686938 (Drosophila RNAi Screening Center, 2013)
In all, the deposit lists about 23,000 reagents; shown is an unselected part of those that have a named target and a result. Of all reagents, 75 (0.33%) are marked active. 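Raw plate signals without normalisation; calls rest on plate z-scores that were not deposited; ratio present for only 364 wells.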 A plus sign joins genes that one reagent is predicted to hit. Not given: the dose of the treatment.

Aim: 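Fly genes required for calcium entry once internal stores are emptied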 (primary screen)
System: Drosophila S2R+ cells
Reagent: long dsRNA against Drosophila genes, about 0.25 µg dsRNA per well, roughly 10,000 cells
Timing: 5 days of knock-down before the calcium assay
Challenge: thapsigargin (SERCA pump blocker) to empty calcium stores; entry signal taken 4 min after adding it
Read-out: 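Duplicate raw fluo-4 intensities per well from a plate reader, at rest and four minutes after thapsigargin emptied calcium stores; entry-to-rest ratio filled for only some wells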
Scale: calcium entry signal: higher = stronger calcium signal after store depletion; entry to resting ratio: higher = more calcium entry relative to resting level; resting calcium signal: higher = higher resting calcium signal
Rule for the call: 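Called when the plate z-score of the entry-to-rest ratio, mean of duplicates, falls below −3; wells with low overall dye signal (Fmax z below −2) or more than five off-targets excluded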
Meaning of the calls: active = strongly reduced calcium entry; inactive = no strong reduction

| gene | dsRNA | calcium entry signal, replicate 1 (fluorescence units) | calcium entry signal, replicate 2 (fluorescence units) | entry to resting ratio | resting calcium signal, replicate 1 (fluorescence units) | resting calcium signal, replicate 2 (fluorescence units) | Outcome |
| --- | --- | --- | --- | --- | --- | --- | --- |
| CG2616 | DRSC15440 | 4.19e7 | 3.13e7 | – | 2.16e7 | 1.60e7 | inactive |
| pHCl-2 | DRSC14306 | 3.45e7 | 5.01e7 | – | 1.80e7 | 2.19e7 | inactive |
| out | DRSC19347 | 3.88e7 | 4.42e7 | – | 1.86e7 | 1.83e7 | inactive |
| Gk2 | DRSC08610 | 4.00e7 | 3.91e7 | – | 1.81e7 | 1.87e7 | inactive |
| fzr | DRSC18781 | 3.23e7 | 4.65e7 | – | 1.57e7 | 2.13e7 | inactive |
| SPH93 | DRSC02978 | 4.62e7 | 2.97e7 | – | 2.04e7 | 1.38e7 | inactive |
| CG16775 | DRSC10225 | 3.94e7 | 4.75e7 | – | 1.81e7 | 1.63e7 | inactive |
| Srx | DRSC20005 | 3.29e7 | 3.70e7 | – | 1.70e7 | 1.66e7 | inactive |
| CG17786 | DRSC15270 | 4.13e7 | 4.91e7 | – | 2.21e7 | 1.84e7 | inactive |
| ova | DRSC02879 | 4.29e7 | – | – | 2.45e7 | – | inactive |
| TMEM216 + CG11760 | DRSC14375 | 2.52e7 | 3.51e7 | – | 1.16e7 | 1.43e7 | inactive |
| CG15478 | DRSC18057 | 4.46e7 | 4.17e7 | – | 1.97e7 | 1.86e7 | inactive |
| sds22 | DRSC17052 | 3.54e7 | 4.84e7 | – | 1.58e7 | 8.19e7 | inactive |
| CG3529 | DRSC10369 | 5.70e7 | 4.50e7 | – | 3.55e7 | 1.79e7 | inactive |
| Su(var)3-3 | DRSC10250 | 2.83e7 | 4.07e7 | – | 1.45e7 | 2.89e7 | inactive |
| mEFTs | DRSC02953 | 5.25e7 | – | – | 2.22e7 | – | inactive |
| CG1889 | DRSC18195 | 4.06e7 | 3.91e7 | – | 1.92e7 | 1.71e7 | inactive |
| CG2865 | DRSC18527 | 3.26e7 | 4.03e7 | – | 1.50e7 | 1.87e7 | inactive |
| CG2865 | DRSC18528 | 6.81e7 | 2.73e7 | – | 3.56e7 | 1.46e7 | inactive |
| snky | DRSC09838 | 3.45e7 | 4.72e7 | – | 1.81e7 | 2.06e7 | inactive |
| CG32191 | DRSC10522 | 4.33e7 | 5.93e7 | – | 2.20e7 | 2.48e7 | inactive |
| Desat2 | DRSC15919 | 4.15e7 | 3.65e7 | – | 1.93e7 | 1.82e7 | inactive |
| CG13001 | DRSC19520 | 4.16e7 | 4.29e7 | – | 1.98e7 | 1.90e7 | inactive |
| CG13001 | DRSC22443 | 3.87e7 | 3.89e7 | – | 1.88e7 | 1.88e7 | inactive |
| Hsp70Aa + Hsp70Ab | DRSC21246 | 3.97e7 | 3.53e7 | – | 2.20e7 | 1.60e7 | inactive |
| CG14292 | DRSC14772 | 1.96e7 | 3.59e7 | – | 3.37e7 | 1.46e7 | inactive |
| nxf4 | DRSC12548 | 3.53e7 | 3.40e7 | – | 1.75e7 | 1.54e7 | inactive |
| Saf-B | DRSC16167 | 4.62e7 | 3.66e7 | – | 2.09e7 | 1.75e7 | inactive |
| CCHa1 | DRSC14821 | 3.07e7 | 4.69e7 | – | 1.54e7 | 6.22e7 | inactive |
| AttD | DRSC16272 | 6.38e7 | 2.58e7 | – | 3.13e7 | 1.40e7 | inactive |
| lark | DRSC11362 | 4.77e7 | 4.63e7 | – | 3.28e7 | 2.04e7 | inactive |
| CG4770 | DRSC15639 | 3.28e7 | 4.53e7 | – | 6.51e7 | 1.77e7 | inactive |
| CG31693 | DRSC03674 | 2.99e7 | 5.45e7 | – | 1.41e7 | 2.19e7 | inactive |
| Vha16-3 | DRSC10872 | 3.11e7 | 4.47e7 | – | 1.71e7 | 2.27e7 | inactive |
| CG1791 | DRSC18141 | 4.27e7 | 3.95e7 | – | 1.88e7 | 1.76e7 | inactive |
| Hsp70Aa + Hsp70Bb + Hsp70Ba + 3 more | DRSC15380 | 3.51e7 | 3.81e7 | – | 1.63e7 | 2.03e7 | inactive |
| scpr-A + scpr-C + scpr-B | DRSC15715 | 3.70e7 | 2.38e7 | – | 1.88e7 | 1.33e7 | inactive |
| Roe1 | DRSC07534 | 2.38e7 | 2.86e7 | – | 1.20e7 | 1.37e7 | inactive |
| Alms1a | DRSC18558 | 3.08e7 | 4.44e7 | – | 1.60e7 | 1.94e7 | inactive |
| Ide | DRSC11867 | 4.72e7 | 4.93e7 | – | 2.18e7 | 3.35e7 | inactive |
| cGlr2 | DRSC04017 | 1.75e7 | 2.77e7 | – | 1.09e7 | 1.39e7 | inactive |
| Stam | DRSC03444 | 4.78e7 | – | – | 2.12e7 | – | inactive |
| CG15199 | DRSC19646 | 3.76e7 | 4.96e7 | – | 1.91e7 | 2.41e7 | inactive |
| CG31815 | DRSC01548 | 2.04e7 | 2.98e7 | – | 1.25e7 | 1.30e7 | inactive |
| CG11279 | DRSC09837 | 3.01e7 | 3.52e7 | – | 1.58e7 | 1.64e7 | inactive |
| CG1722 | DRSC20547 | 3.52e7 | 4.07e7 | – | 2.09e7 | 1.75e7 | inactive |
| CG31792 | DRSC02604 | 3.85e7 | 4.08e7 | – | 1.80e7 | 1.75e7 | inactive |
| CG5886 | DRSC15908 | 2.38e7 | 2.77e7 | – | 1.18e7 | 1.34e7 | inactive |

Copied from the list.
CG31792 [DRSC02604], Outcome: inactive
Su(var)3-3 [DRSC10250], Outcome: inactive
Under “calcium entry signal, replicate 2 (fluorescence units)”, SPH93 [DRSC02978] shows 2.97e7
Entry of CG31815 [DRSC01548] in “resting calcium signal, replicate 2 (fluorescence units)”: 1.30e7
Entry of CG15478 [DRSC18057] in “calcium entry signal, replicate 1 (fluorescence units)”: 4.46e7
For “calcium entry signal, replicate 1 (fluorescence units)”, AttD [DRSC16272] shows 6.38e7

Further entries follow.
| gene | dsRNA | calcium entry signal, replicate 1 (fluorescence units) | calcium entry signal, replicate 2 (fluorescence units) | entry to resting ratio | resting calcium signal, replicate 1 (fluorescence units) | resting calcium signal, replicate 2 (fluorescence units) | Outcome |
| --- | --- | --- | --- | --- | --- | --- | --- |
| ND-13A | DRSC03110 | 4.27e7 | 4.14e7 | – | 1.88e7 | 1.81e7 | inactive |
| ome | DRSC09322 | 4.73e7 | 3.85e7 | – | 2.23e7 | 2.01e7 | inactive |
| ome | DRSC10282 | 5.22e7 | 7.46e7 | – | 2.40e7 | 2.89e7 | inactive |
| ome | DRSC11380 | 5.00e7 | 6.97e7 | – | 2.27e7 | 2.74e7 | inactive |
| CG42780 | DRSC17514 | 3.26e7 | 3.91e7 | – | 1.60e7 | 1.64e7 | inactive |
| CG18131 | DRSC00517 | 5.04e7 | 7.56e7 | – | 2.41e7 | 2.86e7 | inactive |
| CG18131 | DRSC22983 | 5.82e7 | 2.29e7 | – | 2.83e7 | 1.05e7 | inactive |
| CG6495 | DRSC01993 | 5.63e7 | – | – | 2.55e7 | – | inactive |
| Tsp2A | DRSC18584 | 4.25e7 | 4.11e7 | 2.1 | 2.02e7 | 1.77e7 | inactive |
| CG8765 | DRSC11041 | 2.77e7 | 4.48e7 | – | 1.61e7 | 2.37e7 | inactive |
| CG8765 | DRSC23043 | 4.68e7 | 3.03e7 | – | 2.31e7 | 1.52e7 | inactive |
| Cln3 | DRSC10520 | 4.07e7 | 6.24e7 | – | 1.99e7 | 2.39e7 | inactive |
| CG14853 | DRSC14977 | 3.07e7 | 4.32e7 | – | 1.59e7 | 2.15e7 | inactive |
| CG14853 | DRSC21528 | 4.78e7 | 3.27e7 | – | 2.61e7 | 1.63e7 | inactive |
| shd | DRSC11129 | 3.37e7 | 5.35e7 | – | 1.61e7 | 2.31e7 | inactive |
| Mo25 | DRSC11224 | 2.22e7 | 2.95e7 | – | 1.14e7 | 2.09e7 | inactive |
| toc | DRSC00169 | 4.43e7 | 4.47e7 | – | 2.38e7 | 2.10e7 | inactive |
| toc | DRSC00171 | 4.19e7 | 4.25e7 | – | 2.35e7 | 1.85e7 | inactive |
| toc | DRSC00842 | 4.20e7 | – | – | 2.59e7 | – | inactive |
| RpL22 | DRSC18707 | 3.98e7 | 2.37e7 | 2 | 1.94e7 | 1.34e7 | inactive |
| RpL22 | DRSC22819 | 1.45e7 | 1.99e7 | – | 9.12e6 | 1.13e7 | inactive |
| CG13510 | DRSC04152 | 3.61e7 | 3.91e7 | – | 1.94e7 | 1.78e7 | inactive |
| Rbf | DRSC18704 | 4.58e7 | 3.74e7 | – | 2.01e7 | 1.80e7 | inactive |
| Crk | DRSC17163 | 3.77e7 | 3.92e7 | – | 1.77e7 | 1.83e7 | inactive |
| ninaD | DRSC02886 | 4.84e7 | 3.72e7 | – | 2.24e7 | 1.78e7 | inactive |
| CG31560 | DRSC12136 | 3.47e7 | 1.82e7 | – | 1.56e7 | 8.55e6 | inactive |
| snoRNA:Me28S-C3420b + RpS11 | DRSC07396 | 3.04e7 | 4.02e7 | – | 1.48e7 | 1.66e7 | inactive |
